Results from PubChem BioAssay AID1671190 (National Center for Advancing Translational Sciences (NCATS), 2021).
Among all 580,000 compounds or so, about 6,100 (1.1%) were called active. The shares of active, inactive and inconclusive entries below differ from those in the screen. Calls follow the shape of the dose curve; as a rule, active = well fitted inhibition curve with a large enough effect; inconclusive = small, poorly fitted or top-dose-only effect, or another doubt; inactive = no such curve, though single readings can be large or run the other way. Where the call is inconclusive, the potency comes from a doubtful curve fit.

Amino acid sequences for entries named in this document (tags omitted). A change or cut given only in a name is not applied to a line headed by its entry.
UniProt P18054: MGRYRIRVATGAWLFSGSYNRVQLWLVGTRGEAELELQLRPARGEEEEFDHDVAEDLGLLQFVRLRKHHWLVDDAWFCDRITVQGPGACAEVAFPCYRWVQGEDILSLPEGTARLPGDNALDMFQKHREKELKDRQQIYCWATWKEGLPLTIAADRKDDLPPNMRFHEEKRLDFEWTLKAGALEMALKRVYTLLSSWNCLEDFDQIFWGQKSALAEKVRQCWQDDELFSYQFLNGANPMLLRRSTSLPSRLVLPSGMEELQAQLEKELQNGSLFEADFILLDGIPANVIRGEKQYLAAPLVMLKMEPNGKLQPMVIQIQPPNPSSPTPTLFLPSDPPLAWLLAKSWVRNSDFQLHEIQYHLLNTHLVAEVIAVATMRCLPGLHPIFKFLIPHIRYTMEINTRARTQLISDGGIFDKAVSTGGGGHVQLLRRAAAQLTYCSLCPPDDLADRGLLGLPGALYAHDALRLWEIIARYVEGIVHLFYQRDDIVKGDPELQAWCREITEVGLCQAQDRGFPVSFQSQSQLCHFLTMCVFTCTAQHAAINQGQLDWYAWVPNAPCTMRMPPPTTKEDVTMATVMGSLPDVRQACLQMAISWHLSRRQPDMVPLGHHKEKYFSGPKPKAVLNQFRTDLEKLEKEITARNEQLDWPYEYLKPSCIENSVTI

What follows are molecules tested against Polyunsaturated fatty acid lipoxygenase ALOX12 (Homo sapiens) (UniProt P18054) (assay: Primary qHTS assay for inhibitors of human arachidonate 12S-lipoxygenase (ALOX12): Round 2). Conditions: purified 12hLO, xylenol orange hydroperoxide absorbance; activity change, negative = inhibition: at 108 µM (top of the series) unless noted.
How it was run: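 Purified human 12hLO at 150 nM in 25 mM Hepes, 0.01% Triton X-100, pH 7.0, preincubated 15 min at room temperature with compound. Reaction started with 40 uM arachidonic acid, 30 min at room temperature. Hydroperoxide measured by Fe-xylenol orange, 573/405 nm absorbance ratio.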
% is scaled to controls: 0 for no effect and ±100 for the full control effect; potency is read from the fitted curve at half-maximal effect.

SMILES	Potency	activity change, negative = inhibition
FC(F)(F)c1cccc(N2CCN(CC3CC=CCC3)CC2)c1 (configuration not stated)	inconclusive: 50.1 µM [inhibitor, single point]	
COc1ccc(NC(=O)c2c(Cl)cccc2Cl)cc1	inconclusive: 31.6 µM [inhibitor, single point]	
CCCCC(c1nnnn1CC1CCCO1)N1CCN(c2nc3ccccc3s2)CC1 (configuration not stated)	inconclusive: 3.16 µM [inhibitor, full curve, poor fit]	
CN1CCC(C)(C(=O)Nc2cccc(Oc3ccccc3)c2)C1 (configuration not stated)	inconclusive: 31.6 µM [inhibitor, partial curve, poor fit]	
CC(=O)C1=C(C)CC2C3CC=C4CC(O)CCC4(C)C3CCC12C (configuration not stated)	inconclusive: 44.7 µM [inhibitor, partial curve, poor fit]	
CC1CCc2c(sc(NC(=O)c3nc4ncccn4n3)c2C#N)C1 (configuration not stated)	inconclusive: 25.1 µM [inhibitor, partial curve]	
CC(C)CCn1cnc2c1c(=O)n(CC(=O)Nc1ccc(F)c(F)c1)c(=O)n2Cc1ccccc1	inconclusive: 31.6 µM [inhibitor, partial curve, poor fit]	
Cc1ccc(S(=O)(=O)N2CCC(=O)N(CCOCc3ccccc3)CC2)cc1	inconclusive: 100 µM [inhibitor, single point]	
CC(C)CCNC(=S)Nc1cccc(C(F)(F)F)c1	inconclusive: 39.8 µM [inhibitor, partial curve, poor fit]	
CCCc1c(C(=O)N/N=C/c2ccc(-c3ccccc3)cc2)nnn1-c1nonc1N		inactive: 11.9%
Cc1cc2nc3n(c(=O)c2n1CC(=O)NCCc1ccc(Cl)cc1)CCC3	inconclusive: 35.5 µM [inhibitor, full curve, poor fit]	
Cc1ccc(S(=O)(=O)Nc2ccc3c(c2)C(=O)N([C@H](C)CO)C[C@H](C)[C@@H](CN(C)C(=O)NC2CCCCC2)OCCCC[C@@H](C)O3)cc1	inconclusive: 141 µM [inhibitor, single point]	
Cc1ccccc1C(=O)NCC(c1ccco1)N1CCc2ccccc2C1 (configuration not stated)	inconclusive: 79.4 µM [inhibitor, single point]	
CCCn1c(NCc2ccccc2C)nc2ccccc21	inconclusive: 79.4 µM [inhibitor, partial curve, poor fit]	
O=C(O)C[C@@H]1CCN(C(=O)Cc2ccccc2)C[C@@H]1CCN1CCN(c2cccc(C(F)(F)F)c2)CC1	inconclusive: 39.8 µM [inhibitor, single point]	
O=C(CCS(=O)(=O)c1ccc(Cl)cc1)Nc1nc(-c2cccnc2)cs1		inactive: -16.3%
COc1ccc(/C=N/OC(=O)Nc2ccccc2OC)cc1		inactive: 1.18%
Nc1ccc2c(c1)Cc1cc([N+](=O)[O-])ccc1-2		inactive: -1.2%
CCCCOc1ccc(NC(=O)C(C)Oc2ccccc2F)c2cccnc12 (configuration not stated)		inactive: 21.1%
Cc1ccc(-c2csc(NC(=O)c3ccccc3Cl)c2C(=O)O)cc1		inactive: 0.246%
O=S(=O)(Nc1ccon1)c1cc(Cl)ccc1Cl	inconclusive: 89.1 µM [inhibitor, partial curve, poor fit]	
O=C(CCN1CCCCC1)c1ccc2c(c1)OCO2	inconclusive: 50.1 µM [inhibitor, partial curve, poor fit]	
Cc1ccc(C(=O)COC(=O)c2cnccn2)cc1		inactive: 0%

SMILES	Potency	activity change, negative = inhibition
CN1CCN(C(=O)CCN2C(=O)/C(=C\c3ccccc3F)SC2=S)CC1	inconclusive: 28.2 µM [inhibitor, partial curve, poor fit]	
O=C(Nc1c2c(nn1-c1ccc(F)cc1)CS(=O)(=O)C2)c1ccc(S(=O)(=O)N2CCOCC2)cc1	inconclusive: 35.5 µM [inhibitor, single point]	
O=C(c1c(F)cccc1F)N1CCC(n2cc(-c3nc(-c4ccccc4)no3)nn2)CC1	inconclusive: 35.5 µM [inhibitor, partial curve]	
O=C(Nc1cccc(NC(=O)C2CCCCC2)c1)C1CCCCC1		inactive: 2.8%
O=C(COC(=O)/C=C/c1ccccc1[N+](=O)[O-])Nc1ccc2[nH]c(=O)[nH]c2c1	inconclusive: 50.1 µM [inhibitor, partial curve, poor fit]	
Cc1ccc2oc(C(=O)OCc3ccccc3)cc(=O)c2c1		inactive: 1.07%
CCc1c(-c2ccc(OC)cc2)ncn1CCc1ccccc1OC	inconclusive: 50.1 µM [inhibitor, partial curve, poor fit]	
CC(C)c1onc(-c2c(Cl)cccc2Cl)c1COc1ccc(/C=C/c2cccc(C(=O)O)c2)c(Cl)c1		inactive: 0%
O=C1NC(=S)SC1=Cc1ccccc1Br	inconclusive: 44.7 µM [inhibitor, partial curve, poor fit]	
NC(=S)NNc1cccc(Cl)c1	inconclusive: 100 µM [inhibitor, single point]	
COc1ccc(S(=O)(=O)N2CCC3(CCCNC3)C2)c(OC)c1 (configuration not stated)	inconclusive: 14.1 µM [inhibitor, full curve, poor fit]	
COc1ccc(-c2ccc3nnc(SCC(=O)NCC4CCCO4)n3n2)cc1 (configuration not stated)		inactive: 13.5%
O=C(Nc1c(N2CCCC2)c2ccccc2oc1=O)c1ccco1		inactive: -8.04%
CCn1cc(CN2CCn3c(nnc3[C@@H]3C[C@@H](O)CN3Cc3cccnc3)C2)c(C)n1		inactive: 61.5%
CC(C)c1ccc(C2(C)NC(=O)N(C(C)C(=O)Nc3ccc(N4CCOCC4)cc3)C2=O)cc1 (configuration not stated)		inactive: 1.15%
Fc1ccc(OCCOCCN2CCNCC2)cc1	inconclusive: 35.5 µM [inhibitor, partial curve, poor fit]	
CC[C@@]1(C(=O)OC)N[C@H](CN(C)C(=O)Nc2ccccc2)[C@@H]2C(=O)N(C)C(=O)[C@@H]21	inconclusive: 11.2 µM [inhibitor, full curve, poor fit]	
Nc1c(C(=O)NCCN2CCOCC2)c2nc3ccccc3nc2n1CCc1ccccc1	inconclusive: 56.2 µM [inhibitor, partial curve, poor fit]	
Cc1noc2c(N(C)C)cc(-c3cccc(C(F)(F)F)c3)nc12		inactive: 2.47% [at 176 µM]
COc1ccc(-c2noc(CSc3nnc(-c4ccco4)n3C)n2)c(OC)c1	inconclusive: 126 µM [inhibitor, single point]	
O=[N+]([O-])c1ccc2c(c1)C(=NO)c1cc(Cl)c(Cl)cc1-2	inconclusive: 100 µM [inhibitor, partial curve, poor fit]	
COc1ccc(C=Cc2cc(OC)c(OC)c(OC)c2)cc1O		inactive: 3.78%
CC12CCC(C1)C(C)(C)C2=O (configuration not stated)	inconclusive: 0.562 µM [inhibitor, full curve, poor fit]	

SMILES	Potency	activity change, negative = inhibition
C/C(=N\NC(N)=S)C1(C)CCCCC1	inconclusive: 44.7 µM [inhibitor, partial curve, poor fit]	
Cc1ccc2cc(CCCl)c(Cl)nc2c1	inconclusive: 70.8 µM [inhibitor, partial curve, poor fit]	
C=Cc1ccc(CN2CCCN(Cc3ccc(Cl)cc3)S2(=O)=O)cc1		inactive: 0%
Cc1[nH]nc(Nc2ccc(C(C)C)cc2)c1[N+](=O)[O-]	inconclusive: 112 µM [inhibitor, partial curve, poor fit]	
CCn1c(=O)c(C(=O)Nc2ncccc2C)c(O)c2ccccc21		inactive: 1.12%
Cc1ccc(C)c(NS(=O)(=O)c2cc3c(cc2Cl)NC(=O)CO3)c1	inconclusive: 50.1 µM [inhibitor, partial curve, poor fit]	
CN(CC(=O)Nc1cccc(F)c1)C(=O)c1ccc(N2CCCCCC2)c([N+](=O)[O-])c1		inactive: -25%
Cn1c(=O)ccn(CC(=O)Nc2nccs2)c1=O	inconclusive: 100 µM [inhibitor, single point]	
CCOC(=O)c1cccc(NC(=O)C2CCN(S(=O)(=O)c3cn(C)cn3)CC2)c1		inconclusive: -31.1% [inhibitor]
CCN(C[C@H]1N[C@@](C)(C(=O)OC)[C@H]2C(=O)N(C)C(=O)[C@@H]12)C(=O)Nc1ccc(Cl)cc1	inconclusive: 79.4 µM [inhibitor, single point]	
CC(C)(C)OC(=O)N1CCC(c2c(C(=O)NCCN3CCC(Cc4ccccc4)CC3)cnn2-c2ccccc2)CC1	inconclusive: 50.1 µM [inhibitor, partial curve, poor fit]	
CCCn1c(=O)n(CC(=O)Nc2ccccc2)c(=O)c2c1nc(C)n2CCOC		inactive: -8.73%
N=c1n(CCN2CCOCC2)c2ccccc2n1CC(=O)c1cccc([N+](=O)[O-])c1		inactive: 0.251%
CNc1ccccc(-c2ccc3cc4c(cc3n2)OCO4)c1=O	inconclusive: 56.2 µM [inhibitor, partial curve, poor fit]	
COc1cccc(CN(C)C(=O)c2cnn(-c3ncc4c(n3)-c3ccccc3CCC4)c2C)c1	inconclusive: 50.1 µM [inhibitor, partial curve, poor fit]	
CCCC1c2nccn2CCCN1C(=O)Cn1c(=O)oc2ccccc21 (configuration not stated)		inactive: 39.1%
CCc1ccc(CNC(=O)C(=O)NCCc2ccc(OC)c(OC)c2)cc1	inconclusive: 141 µM [inhibitor, single point]	
CN(C(=O)CSc1nnc(-c2ccccc2)o1)C1(c2ccccc2Cl)CCCCC1=O (configuration not stated)		inactive: -2.83%
CC1Oc2ccc(NC(=O)CC(C)(C)C)cc2CN(CCc2ccccc2)C1=O (configuration not stated)	inconclusive: 20 µM [inhibitor, full curve]	
COc1cc2ccccc2cc1C(=O)Nc1ccc2oc(-c3cccc(Cl)c3Cl)nc2c1	inconclusive: 50.1 µM [inhibitor, partial curve, poor fit]	
Cc1onc(-c2c(Cl)cccc2Cl)c1C(=O)Nc1ccc2c(c1)OCCO2		inactive: -23.6%

Arranged by heavy-atom count (smallest number first): some entries from above
SMILES	Potency	activity change, negative = inhibition
C/C(=N\NC(N)=S)C1(C)CCCCC1	inconclusive: 44.7 µM [inhibitor, partial curve, poor fit]	
Cc1ccc2cc(CCCl)c(Cl)nc2c1	inconclusive: 70.8 µM [inhibitor, partial curve, poor fit]	
Cc1[nH]nc(Nc2ccc(C(C)C)cc2)c1[N+](=O)[O-]	inconclusive: 112 µM [inhibitor, partial curve, poor fit]	
N=c1n(CCN2CCOCC2)c2ccccc2n1CC(=O)c1cccc([N+](=O)[O-])c1		inactive: 0.251%
